# Source: PubChem BioAssay AID493014 (National Center for Advancing Translational Sciences (NCATS), 2011)
# The list shows a part of the results. These are further read-outs of the screen, such as a control signal, another cell line or another target. No call is given for them. The list favours compounds with an active or inconclusive main result. Potencies come from curve fits of mixed quality, noted in brackets.
# Test: qHTS Assay to Find Inhibitors of Chronic Active B-Cell Receptor Signaling
# Conditions: ABC-DLBCL IkBa-CBG/CBR reporter, luminescence ratio (green luciferase fused to IkBa over red control in TMD8 lymphoma cells), 4 h
# In short: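 Cell line TMD8 (human ABC DLBCL), stably expressing tet-inducible CBG68-IkBa fusion and CBR; IMDM/0.5% FBS; cpd up to 46 uM; dox induction, 4 h, 37C/5% CO2; dual luminescence; green/red ratio; MG132 control.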
# [1] = measured here: CBR red luminescence, cell number
# [2] = measured here: IkBa-CBG green luminescence
Structure (SMILES),AC50 [1],AC50 [2]
COc1ccccc1CNC(=O)Cc1c[nH]c2ccccc12,"11.2 µM [falling, partial curve]",
COc1ccc(/C(N)=N/OC(=O)c2ccc([N+](=O)[O-])c(C)c2)cc1OC,"0.1 µM [rising, full curve, poor fit]",
Cc1cc(-c2ccccc2)nc(SCc2ccc(C(=O)O)cc2)n1,"11.2 µM [falling, partial curve]",
CSC(=NCCCN1CCOCC1)NS(=O)(=O)c1cccs1,"35.5 µM [falling, single point]",
Cn1c(C(O)c2ccc3c(c2)OCO3)nc2ccccc21 (centres undefined),"6.51 µM [rising, single point]",
CC1(C)c2[nH]c3ccccc3c2C[C@H]2C(=O)N(CCCCCO)CC(=O)N21,"0.562 µM [rising, full curve, poor fit]",
CCSC1=N/C(=C\c2ccc(C)s2)C(=O)S1,"14.6 µM [rising, partial curve]",
COc1ccc(C2N(C(=O)N(C)C)CCN2S(=O)(=O)c2ccc(OC)cc2)cc1 (centres undefined),"6.31 µM [falling, single point]",
Cc1cc(=O)[nH]c(SCC(=O)Nc2nnc(SCc3ccccc3)s2)n1,"25.1 µM [falling, single point]","14.1 µM [rising, partial curve, poor fit]"
CCOC(=O)NC(c1cccc(Cl)c1)C1CCCCCC1=O (centres undefined),"23.1 µM [falling, single point]",
Cc1cc(=O)[nH]c(SCC(=O)Nc2ccc3c(c2)OCCO3)n1,"6.31 µM [falling, single point]",
COc1ccc(/C=C2/Sc3ccc(C(=O)NCCCN4CCOCC4)cc3NC2=O)cc1OC,"17.8 µM [rising, partial curve, poor fit]",
O=C(COc1ccc(Br)cc1Cl)NC(=S)Nc1ccccn1,"3.98 µM [rising, partial curve, poor fit]",
CC1=Nc2nc(N3CCCCC3)c(C#N)c3c4c(nc(c23)N1)N(c1ccc(C(C)C)cc1)C(=O)C4,"11.6 µM [falling, single point]",
COc1ccc(CCCC(=O)NCc2ccccc2)cc1C,"10.3 µM [rising, partial curve, poor fit]",
Cc1cccc(C)c1OCC(=O)NNC(=O)CNC(=O)c1ccc(OC(F)F)cc1,"0.411 µM [rising, full curve, poor fit]",
COc1ccc2nc(C)cc(N/N=C/c3cccc(OC)c3O)c2c1,"11.2 µM [falling, partial curve]","8.91 µM [rising, partial curve, poor fit]"

# Individual results from the entries so far.
# `COc1ccccc1CNC(=O)Cc1c[nH]c2ccccc12` | AC50 [1]: 11.2 µM [falling, partial curve]
# `COc1ccc(/C(N)=N/OC(=O)c2ccc([N+](=O)[O-])c(C)c2)cc1OC` | AC50 [1]: 0.1 µM [rising, full curve, poor fit]
